Patent US20210324075A1
No constants are given. Whether binding was seen depends on the method and setting. Binding can be weak; no strength is given.

Target: dog CD47 (dog)
Test: flow cytometry on dog RBCs

Row | binding | Binder
1 | binds | Vx13 (antibody, V domains shown) VH: EVQLQQSGPEVVKPGASVRISCKASDYTFTNYYIHWVRQRPGQGLEWIGWIYPGNNNNKYNEKFKGKATLTEDTSSSTAYMQLSSLTSEDSAVYFCARGGYTMDYWGQG VL: DVLMTQTPLSLPVSLGDQASISCRSSQSLVHSNGNTYLHWYLQKPGQSPNLLIYKVSNRFSGVPDRFSGSGSGTDFTLKINRVETEDLGIYFCSQSTHVLTFGAG
2 | binds | Vx10 (antibody, V domains shown) VH: QVQLQQSGAELAKPGASVKMSCKASGYTFTNYWIHWIKQRPGQGLEWIGYIDPNTVYTDYNQRFEDKATLTADKSSNTAYMQLNSLTSEDSAVYYCSRGGKRGVDSWGQGTSVTVSS VL: DVVMTQTPLSLPVSLGDQASISCRSSQSLENSNGDTYLNWYLQKPGQSPQLLIYRVSNRFSGVLDRFSGSGSGTDFTLQISRVEAEDLGVYFCLQVSHVPWTFGGGTNLEIK
3 | binds | Vx11 (antibody, V domains shown) VH: EVQLQQSGAQLVKPGTSMKLSCKASGYTFTNYFLYWVKQRPGQGLEWIGDINPNAGSTNLNERFKSKATLTVDKSSSTAYLQLSGLTSEDSAVYYCTRGGYTMDYWGQGTSVTVSS VL: DVVMTQTPLSLPVSLGDQASISCRSSQSLENSNGDTYLNWYLQKPGQSPQLLIYRVSNRFSGVLDRFSGSGSGTDFTLQISRVEAEDLGVYFCLQVSHVPWTFGGGTNLEIK
